In patent US20150218285A1:
Residue numbers refer to the chain shown, from its start. No constants are given. Whether binding was seen depends on the method and setting. For some assays here: In cells and extracts the contact can be indirect. Some binding calls cover weakened binding; strength is not graded here.

T1: polypeptide set forth in SEQ ID NO: 273 (human)
T1 sequence (peptide): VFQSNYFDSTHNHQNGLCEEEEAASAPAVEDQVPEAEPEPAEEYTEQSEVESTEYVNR

B1: anti-CAPRIN-1 monoclonal antibody #25 (antibody, V domains shown)
VH: GPGLVQPSQSLSITCTVSGFSLTTYDLHWVRQSPGKGLEWLGVIWSGGSTDYNAAFISRLSISKDNSKSQVFFKMNSLQANDTAIYYCARNYGYSAWFAYWGQGTLVTVSA
VL: DVLMTQTPLSLPVSLGDQASISCRSSQSIVHSNGNTYLEWYLQKPGQSPKLLIYKVSNRFSGVPDRFSGSGSGTDFTLKISRVEAEDLGVYYCFQGSHVPLTFGAGTKLELKR
B2: anti-CAPRIN-1 monoclonal antibody #27 (antibody, V domains shown)
VH: GGGLVQPGGSMRLSCVASGFTFSNSWFNWVRQSPEKGLEWVAEIRLTSDNYAIYYAESVKGRFTISRDDSKSSVYLQMNNLRAEDTGIYYCTRPETARATFAYWGQGTTVTVSS
VL: B1 VL with L51V, S57F, L101R, A105G, E110N, L111Q, K112T, R113G
B3: anti-CAPRIN-1 monoclonal antibody #28 (antibody, V domains shown)
VH: GPDLVKPGASVKISCKASGYSFTAYYMHWVKQSHGKSLEWIGRVNPNNGGTTYNQKFKGKAILTVDKSSSTAYMELRSLTFEDSAVYYCARRIYYGYFDYWGQGTTVTVSS
VL: AFFAVSLGQRATISCKASQSVDYDGDSYMNWYQQKPGQPPKLLIYVASNLESGVPARFSGSGSGTDFTLNIHPVEEEDAATYYCQQSNEDPYTFGGGTKLEIKQ
B4: anti-CAPRIN-1 monoclonal antibody #29 (antibody, V domains shown)
VH: GAELVKPGASVKLSCTASGLNIRDIYMHWVKQRPEQGLEWIGKIDPANGNTKYDPKFQGKATITADTSSNTAYVQLSSLTSEDTAVYYCAGTGDYWGQGTTVTVSS
VL: GTCGDIVMSQSPSSLAVSAGEKVTMSCKSSQSLLNSRTRKNYLAWVQHKPGQSPRLLIYWASTRESGVPDRFTGSGSGTDFTLTISSVQAEDLAVYYCRQSYNLVTFGAGPS
B5: mouse monoclonal antibody #12 (antibody, V domains shown)
VH: EVQLHQFGAELVKPGASVKISCKASGYTFTDYNMDWVKQSHGKSLEWIGDINPNYDSTSYNQKFKGKATLTVDKSSSTAYMELRSLTSEDTAVYYCARSRSYDYEGFAYWGQGTLVTVSA
VL: DIQMTQSPASLSASVGETVTITCRASGNIHNYLAWYQQKQGKSPQLLVYNAKTLADGVPSRFSGSGSGTQYSLKINSLQPEDFGSYYCQHFWSTLTFGAGTKLELKR

Key:
[1] = target: CAPRIN-1 protein on the cell surface of human cancer cells (human) (UniProt Q14444); assay: flow cytometry on Hep3B, HepG2, SK-Hep-1, SW480, as in Example 10
[2] = target: T1, polypeptide set forth in SEQ ID NO: 273 (human); assay: trypsin digest of antibody-CAPRIN-1 complex, protein A capture, LC-MS

| Binder | binding [1] | binding [2] |
| --- | --- | --- |
| B1 | binds | – |
| B2 | binds | – |
| B3 | binds | – |
| B4 | binds | – |
| B5 | – | binds |
